# Primary screen of a compound library

By UniProt entry, the sequences of proteins in these tests, tags left out.
UniProt E9BF75, entry or part of it: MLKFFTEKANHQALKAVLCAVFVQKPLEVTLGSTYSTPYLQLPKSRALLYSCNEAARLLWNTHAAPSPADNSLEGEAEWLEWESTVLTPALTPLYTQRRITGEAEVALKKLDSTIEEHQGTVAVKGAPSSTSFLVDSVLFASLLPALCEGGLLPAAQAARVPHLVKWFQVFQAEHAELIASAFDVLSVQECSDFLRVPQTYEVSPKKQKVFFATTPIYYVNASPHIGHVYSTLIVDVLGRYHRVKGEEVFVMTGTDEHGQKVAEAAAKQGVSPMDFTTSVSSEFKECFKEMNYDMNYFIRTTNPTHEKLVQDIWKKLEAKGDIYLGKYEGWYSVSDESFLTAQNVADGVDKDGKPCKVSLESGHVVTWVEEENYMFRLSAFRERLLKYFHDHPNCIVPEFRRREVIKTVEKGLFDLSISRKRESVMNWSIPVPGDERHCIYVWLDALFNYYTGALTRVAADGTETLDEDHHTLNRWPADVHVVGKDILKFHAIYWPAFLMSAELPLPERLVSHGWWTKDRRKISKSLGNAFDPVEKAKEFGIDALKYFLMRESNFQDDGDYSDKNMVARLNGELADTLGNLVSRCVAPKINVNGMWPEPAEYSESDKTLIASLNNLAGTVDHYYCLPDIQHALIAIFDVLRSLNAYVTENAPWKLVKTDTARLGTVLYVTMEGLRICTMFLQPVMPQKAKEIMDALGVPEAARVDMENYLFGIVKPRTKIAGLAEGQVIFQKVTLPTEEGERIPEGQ

A: 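Assay on Mycobacterium tuberculosis, filed only as a heat shock assay from Cornell; the read-out is not stated. The concentration is filed as 10 mM, unlikely as a test dose, so the dose is not known. The record gives no direction; compounds that gave an IC50 in retests scored well above the rest, so higher reads as stronger inhibition. Of about 69,000 compounds tested this way, about 930 (1.4%) reached 50% or more in at least one test.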
B: 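Primary screen of methionyl-tRNA synthetase; the read-out is not stated. Target: Methionyl-tRNA synthetase (putative), Leishmania donovani (UniProt E9BF75). The test concentration is not given. The values are filed as inhibition. About 68,000 compounds were tested under these conditions; 0.035% (about 24) showed 50% or more at least once.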
C: 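Whole-cell assay for inhibitors of Mycobacterium tuberculosis growth, labelled Cornell in the record; the read-out is not stated. The concentration is filed as 10 mM, unlikely as a test dose, so the dose is not known. Higher means stronger inhibition (inferred from two other growth screens of the library). Size under these conditions: about 53,000 compounds, about 900 of them at 50% or above in at least one test.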

Results are percentages, as filed. The controls that fix the scale are not given in the record; negative values are as filed. The compounds are a random part of those screened.

For CSC(C)C(=O)N1CCC(Oc2cc(C)ccc2F)(C(=O)O)CC1 (stereo not shown) the result was A: -0.6352%; B: 12.06%; C: -0.5828%. With Cn1nc(C(=O)NC2(c3ccccc3)CCC2)ccc1=O the screen gave A: 12.87%; B: 14.42%; C: 45.75%. For CNC(=O)c1cccc(CCNS(C)(=O)=O)c1 the result was A: 24.31%; B: 12.09%. CC(C)N1[C@H](CN2CCCC2)C[C@@H]2CN(Cc3cnn(C)c3)CC[C@@H]21 read B: 12.32%. For Cc1cnc(C(=O)N2Cc3ncn(C)c3C(COCC(C)C)C2)cn1 (stereo not shown) the result was B: 14.03%.

CCCN(Cc1ccc(C#N)cc1)Cc1nnsc1Cl read A: -18.38%; B: -5.282%; C: -27.74%. With CNC(=O)c1cnc2n1CCN(Cc1cccnc1)C2 the screen gave B: 7.769%. CNc1cc(C2CN(C(=O)c3ccccc3)CCO2)nc(C)n1 (stereo not shown) read A: -12.66%; B: 6.915%; C: -0.418%. For Cc1cnc(N2CCC3(CCCN3C(=O)c3ccco3)CC2)nc1.O=C(O)C(F)(F)F the result was A: 2.375%; C: 32.69%. With Cn1ccnc1CN1CCCN(C(=O)c2ccc(O)nc2)CC1 the screen gave A: 7.329%; B: 13.69%; C: 3.548%.

Result for CC(C)(C)c1ncc(C(=O)NCCNC(=O)c2cccs2)s1 was A: -22.7%; B: 3.631%; C: -14.14%. Cc1nc(NCc2ccc(F)cc2)cc(C(=O)N2CCOCC2)n1 read A: 13.59%; B: 0.2481%; C: 5.998%. With CC(=O)Nc1ccc(SCC(O)COCc2ccccc2)cc1 (stereo not shown) the screen gave A: 13.83%; B: 9.704%; C: 3.875%. CC(C)c1nnc2n1CCN(C(=O)c1ccnc(-n3ccnc3)c1)C2 gave A: -17.25%; B: 4.819%. With O=C(NC1CCCC1)[C@H]1C[C@H]2OCC[C@H]2N(Cc2ccoc2)C1 the screen gave B: 10.48%.

Result for Cc1ccc(C(=O)Nc2ccccc2F)n1C was A: -0.3209%; B: 16.49%; C: 16.66%. For CCn1nc(CC(C)C)cc1C(=O)N1CCC(n2cnnc2)CC1 the result was A: -10.83%. Cc1ccccc1C(=O)NC(C)c1cnn(C)c1 (stereo not shown) gave A: -8.084%; B: 1.567%; C: -47.47%. Cc1ccc(N2CCC3(CCN(C(=O)C4CCOC4)CC3)CC2)nn1 (stereo not shown) gave A: -16.75%; B: 12.2%; C: 23.87%. With O=C(CN1CCc2cncnc2C1)NCCOc1ccccc1 the screen gave A: 13.86%; B: 22.05%; C: 11.19%.

With Cc1ccc2nc(C)c(C)c(C(=O)N3CCN(c4nccs4)CC3)c2c1 the screen gave A: -49.61%; B: 12.85%; C: -0.6861%. For NC(=O)CN(CC(N)=O)Cc1cccc(Oc2ccccc2)c1 the result was A: -11.29%; B: 11.42%; C: -0.9927%. With CN(C)c1cc(CNCc2cccc3c2OCCO3)ccn1 the screen gave A: -9.024%; B: 14.61%; C: 17.93%. With CC(=O)NCC(=O)N1CCN(C)c2ncccc2C1 the screen gave A: -6.042%; B: 12.09%; C: 7.857%. CC1(CNC(=O)NCc2ccsc2)CCCS1 (stereo not shown) gave A: 34.17%; B: 14.37%; C: 1.003%.

OC(COc1ccccc1)CN1CCC(c2ccn[nH]2)CC1 (stereo not shown) read A: 5.993%; B: 9.859%; C: -11.53%. With CN(CCCNC(=O)C1CCc2cn[nH]c2C1)c1ccc(F)cc1 (stereo not shown) the screen gave A: -28.42%; B: 3.495%.

The first 2 entries again:

CSC(C)C(=O)N1CCC(Oc2cc(C)ccc2F)(C(=O)O)CC1 (stereo not shown) gave A: -0.6352%; B: 12.06%; C: -0.5828%.
Cn1nc(C(=O)NC2(c3ccccc3)CCC2)ccc1=O gave A: 12.87%; B: 14.42%; C: 45.75%.

Source: ChEMBL document CHEMBL3988442, “University of Dundee, Small-Polar-MMV Screening Library” (2021).